In the supplement of paper PMC4604168 (melanoma cell lines):
This is one part of the list. Many values rest on one well or one pass, so single values are uncertain.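 Imaging used 1,536-well plates; nuclei positive for cleaved PARP by antibody were divided by total DNA-stained nuclei to yield the apoptosis fraction. Doses for screening kept most cells viable, and cell lines differ markedly in resting and induced cleaved-PARP levels.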

test system: A101D; assay: cleaved PARP positive nuclei fraction relative to DMSO control; melanoma cells; higher = more apoptosis; settings: library dose: low library concentration; 72 h

| Structure (SMILES) | cleaved PARP positive nuclei fraction |
| --- | --- |
| COc1cc([C@@H]2c3cc4c(cc3[C@@H](O[C@@H]3O[C@@H]5CO[C@@H](C)O[C@H]5[C@H](O)[C@H]3O)[C@H]3COC(=O)[C@H]23)OCO4)cc(OC)c1O [etoposide] + CC(C)CCN1c2nc(Nc3cc(F)c(O)c(F)c3)ncc2N(C)C(=O)C1C [BID1870] (first compound 0.02 µM, partner dose 0.2 µM) | 20.1% |
| Cc1ccc(Nc2nccc(N(C)c3ccc4c(C)n(C)nc4c3)n2)cc1S(N)(=O)=O [Pazopanib] + CCN(CC)CCCCNc1ncc2cc(-c3cc(OC)cc(OC)c3)c(NC(=O)NC(C)(C)C)nc2n1 [PD173074] (first compound 0.4 µM, partner dose 0.1 µM) | 23.7% |
| Cc1cn(-c2cc(NC(=O)c3ccc(C)c(Nc4nccc(-c5cccnc5)n4)c3)cc(C(F)(F)F)c2)cn1 [nilotinib] + COc1ccc2c(c1)CCC1C2CCC2(C)C(NCCCCCCN3C(=O)C=CC3=O)CCC12 [U73122] (first compound 0.2 µM, partner dose 0.4 µM) | 40.1% |
| N#CC[C@H](C1CCCC1)n1cc(-c2ncnc3[nH]ccc23)cn1 [ruxolitinib] + COc1ccc2c(c1)CCC1C2CCC2(C)C(NCCCCCCN3C(=O)C=CC3=O)CCC12 [U73122] (first compound 1 µM, partner dose 0.4 µM) | 27.1% |
| CCCCCCCCCCCCCCCCCCOP(=O)([O-])OC1CC[N+](C)(C)CC1 [Perifosine] + O=C(O)C(=O)Nc1sc2c(c1C(=O)O)CCNC2 [TCS401] (first compound 0.4 µM, partner dose 1.66667 µM) | 29.6% |
| Cc1cn(-c2cc(NC(=O)c3ccc(C)c(Nc4nccc(-c5cccnc5)n4)c3)cc(C(F)(F)F)c2)cn1 [nilotinib] + COc1cc(N2CCC(N3CCN(C)CC3)CC2)ccc1Nc1ncc(Cl)c(Nc2ccccc2S(=O)(=O)C(C)C)n1 [NVP-TAE684] (first compound 0.2 µM, partner dose 0.08 µM) | 35% |
| Cc1ccc(Nc2nccc(N(C)c3ccc4c(C)n(C)nc4c3)n2)cc1S(N)(=O)=O [Pazopanib] + O=C(Nc1ccccc1)c1cc([N+](=O)[O-])ccc1Cl [GW9662] (first compound 0.4 µM, partner dose 2 µM) | 22.5% |
| O=C(Nc1cc(C(F)(F)F)cc(C(F)(F)F)c1)c1cc(Cl)ccc1O + O=C(O)C(=O)Nc1sc2c(c1C(=O)O)CCNC2 [TCS401] (first compound 0.016 µM, partner dose 1.66667 µM) | 19.6% |
